Test results taken from article PMC8602821.
These are yes or no findings as the source states them, for the method shown. In cells and extracts the contact can be indirect. Some binding calls cover weakened binding; strength is not graded here. Where a sequence is shown, tags or fusion partners need not be part of it.

Assays:
ZIP-11-GFP (C. elegans) = biological target: T1, ZIP-11-GFP (C. elegans) (UniProt Q9N5A8); assay: co-IP; ZIP-11-GFP and CEBP-2-Flag co-expressed in 293T cells; lysate in IPB (50 mM HEPES pH 7.7, 100 mM NaCl, 50 mM KCl, 2 mM MgCl2, 2 mM CaCl2, 1 mM EDTA) with Triton X-100; anti-GFP-Trap-A beads overnight at 4°C; blot with anti-Flag
T1 sequence: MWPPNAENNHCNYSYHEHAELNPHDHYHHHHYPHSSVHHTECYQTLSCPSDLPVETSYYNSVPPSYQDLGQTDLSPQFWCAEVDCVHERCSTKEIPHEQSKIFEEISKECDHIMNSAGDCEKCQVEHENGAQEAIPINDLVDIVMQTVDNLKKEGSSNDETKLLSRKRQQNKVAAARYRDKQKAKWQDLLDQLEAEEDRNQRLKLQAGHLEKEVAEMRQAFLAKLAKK

[1] = biological target: T2, GST-fused CEBP-2 (C. elegans) (UniProt Q8IG69); assay: pull-down; GST-fused CEBP-2 (or GST) from bacterial extract added to lysate of HEK293T cells transfected with ZIP-11-GFP; GST-beads overnight at 4°C; working buffer 50 mM HEPES pH 7.4, 100 mM NaCl, 50 mM KCl with Triton X-100; blot with anti-GFP and anti-GST
T2 sequence: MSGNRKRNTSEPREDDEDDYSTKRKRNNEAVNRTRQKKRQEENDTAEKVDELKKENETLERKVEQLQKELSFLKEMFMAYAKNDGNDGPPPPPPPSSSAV

B1: CEBP-2-Flag (protein, UniProt Q8IG69 1-100)
chain: MSGNRKRNTSEPREDDEDDYSTKRKRNNEAVNRTRQKKRQEENDTAEKVDELKKENETLERKVEQLQKELSFLKEMFMAYAKNDGNDGPPPPPPPSSSAV
binding (ZIP-11-GFP (C. elegans)): binds

B2: ZIP-11-GFP (protein, UniProt Q9N5A8 1-228)
chain: MWPPNAENNHCNYSYHEHAELNPHDHYHHHHYPHSSVHHTECYQTLSCPSDLPVETSYYNSVPPSYQDLGQTDLSPQFWCAEVDCVHERCSTKEIPHEQSKIFEEISKECDHIMNSAGDCEKCQVEHENGAQEAIPINDLVDIVMQTVDNLKKEGSSNDETKLLSRKRQQNKVAAARYRDKQKAKWQDLLDQLEAEEDRNQRLKLQAGHLEKEVAEMRQAFLAKLAKK
binding [1]: binds
